Laboratory results published in PMC10435237.
Results are given in words; binding and its absence hold for the method and conditions named. In cells and extracts the contact can be indirect. Here binding means that the protein was enriched with, or labelled near, the bait; the list need not be complete.

Protein sequences, listed by entry. Tags and fused reporters are not part of them.
UniProt Q86U44: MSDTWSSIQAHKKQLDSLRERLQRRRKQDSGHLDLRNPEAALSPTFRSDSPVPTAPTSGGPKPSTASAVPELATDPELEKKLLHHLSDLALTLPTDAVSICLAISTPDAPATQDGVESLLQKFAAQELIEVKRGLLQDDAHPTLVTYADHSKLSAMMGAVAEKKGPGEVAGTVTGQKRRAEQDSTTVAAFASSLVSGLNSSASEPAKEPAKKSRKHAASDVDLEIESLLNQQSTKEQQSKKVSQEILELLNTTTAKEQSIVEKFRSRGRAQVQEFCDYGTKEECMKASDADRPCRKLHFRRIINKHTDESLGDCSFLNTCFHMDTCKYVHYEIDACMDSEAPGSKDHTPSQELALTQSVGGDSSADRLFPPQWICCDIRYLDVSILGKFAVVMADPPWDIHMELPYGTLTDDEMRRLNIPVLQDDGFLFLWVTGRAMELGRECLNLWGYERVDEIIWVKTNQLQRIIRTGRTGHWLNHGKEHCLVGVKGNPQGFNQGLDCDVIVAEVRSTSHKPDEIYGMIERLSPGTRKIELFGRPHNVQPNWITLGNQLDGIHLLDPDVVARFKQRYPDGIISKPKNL
UniProt O75832: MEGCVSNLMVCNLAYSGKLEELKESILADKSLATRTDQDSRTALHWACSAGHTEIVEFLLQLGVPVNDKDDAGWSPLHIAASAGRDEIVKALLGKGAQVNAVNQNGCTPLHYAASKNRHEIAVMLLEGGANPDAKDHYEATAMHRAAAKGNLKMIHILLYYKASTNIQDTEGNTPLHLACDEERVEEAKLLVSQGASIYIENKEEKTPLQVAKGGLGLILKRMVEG
UniProt P17980: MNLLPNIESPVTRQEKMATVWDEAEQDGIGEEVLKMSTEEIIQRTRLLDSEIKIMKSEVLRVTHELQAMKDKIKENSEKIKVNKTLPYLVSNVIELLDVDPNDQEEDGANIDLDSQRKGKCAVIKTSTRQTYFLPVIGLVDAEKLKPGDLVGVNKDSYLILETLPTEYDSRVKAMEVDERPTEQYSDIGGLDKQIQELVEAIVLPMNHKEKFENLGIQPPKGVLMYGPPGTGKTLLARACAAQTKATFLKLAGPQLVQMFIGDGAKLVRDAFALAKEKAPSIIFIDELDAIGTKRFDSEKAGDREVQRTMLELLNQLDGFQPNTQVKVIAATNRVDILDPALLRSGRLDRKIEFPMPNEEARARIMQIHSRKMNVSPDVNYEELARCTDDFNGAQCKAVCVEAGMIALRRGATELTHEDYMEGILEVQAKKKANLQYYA
UniProt P62195: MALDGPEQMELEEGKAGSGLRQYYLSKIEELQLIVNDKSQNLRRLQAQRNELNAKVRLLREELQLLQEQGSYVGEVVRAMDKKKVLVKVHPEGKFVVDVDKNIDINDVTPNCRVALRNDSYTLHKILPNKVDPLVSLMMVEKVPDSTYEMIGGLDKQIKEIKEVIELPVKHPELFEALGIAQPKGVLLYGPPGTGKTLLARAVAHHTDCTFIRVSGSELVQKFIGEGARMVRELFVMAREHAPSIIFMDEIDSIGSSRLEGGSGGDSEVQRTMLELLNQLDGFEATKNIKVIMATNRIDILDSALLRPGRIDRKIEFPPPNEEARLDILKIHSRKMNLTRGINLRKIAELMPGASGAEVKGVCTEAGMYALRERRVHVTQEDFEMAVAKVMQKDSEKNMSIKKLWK

Target: METTL3, endogenous (human (endogenous in 293T)) (UniProt Q86U44)
Experiment: affinity purification with mass spectrometry; IP with METTL3 antibody from 293T cells, LC–MS/MS of the eluate (Figure 7f)

Substance | binding
PSMD10 (from UniProt O75832 1-226) | binds
PSMC3 (from UniProt P17980 1-439) | binds
PSMC5 (from UniProt P62195 1-406) | binds
